Test results: the supplement of paper PMC3334620
In all, about 33,000 sequences were measured (“E-score (-0.5 to 0.5)”: median about -0.0014, highest 2% from about 0.25 on). This is one part of the list.

The sequences below were run against T1, Cad1 (UniProt P24813) (assay: PBM E-score (8-mer binding enrichment) (E-score (-0.5 to 0.5)); higher = stronger / more preferred TF binding). Conditions: protein concentration: 100 nM; construct: GST-full length.
T1 sequence: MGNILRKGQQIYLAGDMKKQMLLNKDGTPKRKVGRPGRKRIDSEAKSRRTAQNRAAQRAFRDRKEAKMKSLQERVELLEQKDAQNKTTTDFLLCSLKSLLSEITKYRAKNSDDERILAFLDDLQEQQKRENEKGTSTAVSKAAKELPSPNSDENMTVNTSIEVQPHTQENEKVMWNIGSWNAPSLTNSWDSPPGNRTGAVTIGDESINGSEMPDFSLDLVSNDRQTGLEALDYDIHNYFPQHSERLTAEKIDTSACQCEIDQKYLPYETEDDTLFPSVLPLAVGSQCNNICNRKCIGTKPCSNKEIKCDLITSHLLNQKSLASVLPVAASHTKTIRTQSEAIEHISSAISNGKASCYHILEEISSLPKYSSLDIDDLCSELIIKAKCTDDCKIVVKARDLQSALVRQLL
How it was run: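 Yeast transcription factors, full-length or as DNA-binding domains, were expressed with a GST tag using PURExpress in vitro transcription/translation. At about 100-200 nM they were applied to universal all-10-mer Agilent arrays, double-stranded by primer extension on fresh or once-stripped slides. Fluorescent anti-GST detected bound protein, and masliner normalised the scans. E-scores for ungapped eight-base words, pooled with reverse complements, came from the Universal PBM Analysis Suite.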

Sequence	PBM E-score
ACCCCAAA	0.0445
CCTAAATA	-0.121
AGCACCTC	-0.0619
GGCTCATA	0.0877
CTGATAGC	-0.057
CATTCCGA	0.179
CAAATCAG	0.155
GGGGCCCA	-0.32
TACGACGA	0.0477
AAGATCTG	0.0512
CTCCCAAA	-0.0721
AAAATGGT	0.174
CGCATCAA	0.023
AAACAAAC	0.0914
AACAAGGG	-0.125
ATATTTCA	0.212
GGACGAAC	0.207
CCGAATAC	-0.0293
AAATAATG	0.152
GTAAGATA	0.18
ACCCTGGC	-0.0731
CGTTGTAA	-0.00029

Sequence	PBM E-score
ATATGGTA	0.0411
AACGTAGT	-0.0796
CACATTGA	0.098
GCTAAGCA	0.002
ACTACATC	0.0704
CTCGTCAC	0.164
GATCACAA	0.225
ATATACAA	0.161
TATCAAAA	0.224
CCAAGCAC	0.0229
GCCCGAGA	0.172
CAACTTTA	0.167
GAAACGGC	0.0975
ACGATCGT	-0.0266
AGAACCAC	-0.163
GTGTGTAA	0.0205
AAGGCCAT	0.0298
CTGCGCAC	0.119
CCTCTTGA	-0.15
GGCCTGTA	-0.0887
GTGGGGAA	0.109
GCGAAACA	0.165

3 entries from above, set out differently.
Sequence,PBM E-score
ATATACAA,0.161
TATCAAAA,0.224
CCAAGCAC,0.0229

Further results.

Sequence	PBM E-score
ACCATTGC	-0.0675
CGAGTTAC	0.0853
GGTGTTAA	0.0749
GCCGGTCA	0.0179
ATCATGCA	-0.0367
CTCAATTC	0.066
CTCACGAG	-0.18
AGAGGTTC	-0.0178
CACAGCAG	-0.034
ACGGGAGC	-0.0379
ATAAGGAC	0.00628
CAACGGTA	-0.144
ACACGTGC	-0.0408
ATTATCAC	0.151
TATCTTAA	0.108
AATACGTA	0.107
CCAGATGA	-0.131
TAGGTCCA	-0.0222
CTGCGTAC	-0.0909
CCCAAGCC	-0.183
CAGCCACA	0.0992
AATCGATT	0.198

Sequence	PBM E-score
CTGGCACC	-0.164
CATGAACG	0.0355
AGTCTCAC	-0.0748
GGGGGCGA	-0.408
GCGAAACC	0.0968
CAGCTTGG	0.113
ACGGGTAA	-0.0345
GCATGGCA	0.157
CACCGCAC	-0.119
CCGAGAGC	-0.239
CTAACCTC	-0.0332
AGGCCCAT	-0.194
GAGGCCCC	-0.328
AAAGGAAC	0.13
TCTATAGA	-0.146
GCGCCCAA	0.143
AAAGGTTA	0.00027
ACCGCCGC	-0.092
ATTAGCAA	0.304
AAAAGCAG	0.0568
